The source of these data is PubChem BioAssay AID1347426 (Functional Genomics Laboratory (NCATS/FGL), 2020).

Among all 31,000 sequences or so, about 1,400 (4.5%) were called active.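 Rule for the calls: active = median seed-adjusted z-score above 1 or below -1; inactive = the rest.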 The list shows a part of the results.

The nature of the experiment: Novel Modifiers of Survival Motor Neuron (SMN) Protein: Gene Identification via Genome-wide siRNA Screen.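 Note: luminescence tracks full-length SMN protein made from the SMN2 reporter.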 The note with it: HEK293T SMN2-luciferase reporter, siRNA knockdown, 72 h; actives lie on both sides. The gist of the method:
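Each of three siRNAs per gene is reverse-transfected (1 pmol) into reporter HEK293T cells whose luciferase output tracks SMN protein level. After 72 h culture, ONE-Glo luminescence is control-normalized, log10-transformed and MAD-standardized; Common Seed Analysis deprioritizes seed-driven hits.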
Background: Reporter assays use an easily measured gene product as a stand-in for the process of interest.
CAACGAUAUUUGGAUAUCUTT against DPP8: the median seed-adjusted z-score is inactive: -0.0209. Under GGUGGUCGGAGAUACCAAATT against UCP2 stands inactive: -0.111. For CAUGCAAUCUAUCUCAUUUTT against SHC1, the median seed-adjusted z-score was inactive: 0.0401.

With AGGCAGAGCUGGUACGACUTT against B3GAT3, the median seed-adjusted z-score was inactive: -0.00603. As to AUACGGCUCUAACAGAUUATT against DBI, the median seed-adjusted z-score is inactive: 0.0661. For GGUUUACCAUGGACCAGGATT against PNLIPRP3, the median seed-adjusted z-score was inactive: -0.287. Under GAUCAGGAGUCCUUCAAUATT against RAB1A stands inactive: 0.395.

Take GGACUGUGACGACAUCUAUTT against MFAP4: the median seed-adjusted z-score is inactive: -0.28. Under GGAGCAGGAUAGUGCCUUUTT against PML stands inactive: -0.415. On to GCAUGAUCUAGAUCGAGUATT against UQCRFS1, for which the median seed-adjusted z-score was active: -1.28. Under GCGUGACCGUUCUCUUAUUTT against NUDT14 stands inactive: 0.479; under GCCUAUGACCUUCUACUUUTT against SLC31A1, inactive: 0; under CAAUGGGAUUGAGAUCAAATT against EIF2C1, inactive: 0.215.

For the sequence GUGCUACUUUGGACGUAAATT against SEC23B, the median seed-adjusted z-score is inactive: 0.48. Regarding AGCCUGAAAGUAUCCGUAATT against CLTA, the median seed-adjusted z-score is inactive: 0.243.

On to AGCCUUCACUCAACUCUCATT against ZNF250, for which the median seed-adjusted z-score is inactive: -0.00985. Then GGAUUGGACCCUUCCAAGATT against CRHBP, with inactive: -0.0443; and GGAGAGUGCUACAAGGUGATT against COL6A2, with inactive: 0.0119. Regarding ACAUAUAGGUAUCGACCAATT against PRICKLE2, the median seed-adjusted z-score was active: -1.12. As for CCGGUGAAAUUUCAUUCUATT against TRIM58, the median seed-adjusted z-score was inactive: -0.582.

Regarding GAAGCUAUAGAAAGGUUAATT against RAD23B, the median seed-adjusted z-score is inactive: 0.639. With CUACAUGAAUAGCAGUAAATT against FMNL2, the median seed-adjusted z-score is inactive: 0.293. Then GCGAAAUGACUUAUACUAUTT against HLTF, with inactive: -0.00902. Under GCCUACCCAUUUGUGAACATT against PEX12 stands inactive: -0.129. Then GGCUACCUGUGCUACUCAGTT against KRTAP23-1, with inactive: 0.647; and CAAGCACUGUCGCAAGAAATT against MEGF6, with inactive: 0; and GGAUGAAGGUAGUUACGUUTT against RAVER2, with inactive: -0.258. Turning to GAAUUUUCUUCAUCACAUATT against INSL6, the median seed-adjusted z-score is inactive: 0.777. On to GCAUGAGGCUCUUCACCAATT against USP2, for which the median seed-adjusted z-score was inactive: -0.0321. Under CAGAUAUUUUAACACUGAATT against RAD51L1 stands inactive: 0; under GUAUAAAGGUGACAUAUAUTT against HSPA4, inactive: 0.143.

For the sequence CGAUCUCAGCAGGCCUAUATT against GALT, the median seed-adjusted z-score is inactive: 0.484.

For GGGAAAUGUUGAAGCGCCATT against GRINL1A, the median seed-adjusted z-score is inactive: 0. As for CAAUCUAUGAGAUUCGUAATT against GJD2, the median seed-adjusted z-score was inactive: -0.229. Then CAGCGAUGUUGGUUAGUGATT against PDS5A, with inactive: -0.29; and GCAAGAUUGAAACCAUAGATT against HNRNPA3, with inactive: 0.915; and GAAAUACCCUAUUACCAAATT against MED26, with active: -1.86. For the sequence GGGUGUCUGCGAUUAUCUUTT against WDFY1, the median seed-adjusted z-score is inactive: 0.979. CUGUUAGAAUGAUUGCUGATT against GJA3: the median seed-adjusted z-score is inactive: 0.833. Under CAUUAGAAAUGUUGAGGUUTT against PCGF5 stands inactive: 0.25; under GCAGUGAAAUUUUGGAGGUTT against ZSCAN10, inactive: 0; under GGAGCGAAAGAUUGCCUAATT against STAM2, inactive: -0.24. Take AGAACUCACCUCCUGAUUATT against YY1: the median seed-adjusted z-score is active: 1.94. Consider CCAUGGGCUUGAUUGCCUUTT against CD1D, for which the median seed-adjusted z-score is inactive: -0.579. Under AUGCUGAUCAGGAAAAGUATT against TEX13A stands active: -1.22; under GAGACAUCGUUGUGCGGAATT against CDYL2, inactive: -0.379. Then GCCUUAGCAAAUAUCCUUATT against HMGCLL1, with inactive: 0.275; and GGAUAUCAAUUAUUACGCUTT against LIFR, with inactive: 0.031. Under CAUUUUCCGUAUUUUGCAATT against FOXN3 stands inactive: -0.636; under GGAAGAUUUUUGGUUCUAUTT against KCND2, inactive: -0.245. Consider CAUUGACUACUAUAAGAAATT against FGFR4, for which the median seed-adjusted z-score is inactive: 0.0825. Regarding GAUGAGGCAUGGUACUUCUTT against SIGLEC11, the median seed-adjusted z-score is inactive: -0.395. Then GGCUAGUGGUGACAAAUGUTT against SRD5A3, with inactive: -0.165; and CGUAAAUCCCUAAUCUUUATT against FOXJ1, with inactive: -0.553. In the case of CCACCUACAGAGUGUCCUATT against EMID2, the median seed-adjusted z-score was inactive: 0.0465. Then CCAGUUGUCUAAACUAGGATT against DHRS7, with inactive: 0.255; and CACUUACCCUCCUCAAGUUTT against SERPINF2, with inactive: 0.629; and AGCCGUUUGUUGACACUAATT against NCK2, with inactive: -0.397. Under GCCUACAUGUGCAUCCUCATT against GPR45 stands inactive: 0.0287; under GGUUGAUGGAUUAUCUCAATT against ATP11C, inactive: 0.102; under GCAUGUCAGACUUCGAGAATT against PIGR, inactive: -0.35. Under GCUCAUGUACUGCUACGUATT against NTSR2 stands inactive: -0.125; under GGAGAAUUGUUUUGCCUGATT against ZBTB43, inactive: 0.143; under CCAUUGACAUCAAAUGUGATT against HES6, inactive: 0.71. For the sequence GGUAUAUGCUCGUAUGUCATT against RANBP17, the median seed-adjusted z-score was inactive: -0.123. Then GGACUAAGCUUGCACUCAATT against HSPA2, with inactive: -0.0343. Under GCUCGGUGGAAAAACGUGATT against SCN3A stands inactive: -0.0556; under GCAGCAGUAUUCUCGAGAATT against NRIP1, inactive: 0.789.

For the sequence GGCAGUUCAGUAGCUCUAATT against DHX58, the median seed-adjusted z-score is inactive: -0.302.

Turning to GGGCGGUCAUGGUUUUGAATT against CHST13, the median seed-adjusted z-score was inactive: -0.447.

Turning to CUAAUUCAACAUUACAUCATT against ZNF550, the median seed-adjusted z-score is inactive: 0.131. For UGACCUUGCCGAGCACUUUTT against SLC16A11, the median seed-adjusted z-score is inactive: -0.396. As to GCGAGAAAGUUUACGGGAATT against KLF13, the median seed-adjusted z-score is inactive: -0.501. In the case of GCUCAUACCUCGGAUGUCATT against GPR31, the median seed-adjusted z-score was inactive: -0.0381.

Turning to GUCUUUCAGGUGUACCCAUTT against GATA1, the median seed-adjusted z-score is inactive: 0.371. Consider GCUAAUCUGUGGAGGAAAATT against EXDL2, for which the median seed-adjusted z-score is inactive: -0.0717. Then CAGCUACCAUGUCCCAGAUTT against CYC1, with inactive: -0.47. Regarding GCGAUUGUGCAGAAACAGATT against ZNF70, the median seed-adjusted z-score was inactive: -0.558. Turning to CGGAUGAAGCUGACAGUGATT against 9-Sep, the median seed-adjusted z-score was inactive: -0.0175. Then GGAAGACGGUGAACCAGAATT against SLC13A2, with inactive: 0.172; and GGUCAAUCCUAGUAUCUCUTT against NCOA1, with inactive: 0.537. Then CCAUCUACCCGGGCACUUUTT against RTN4RL2, with inactive: -0.168; and CCAAAAUUGAAGUAAUAGATT against GTF2E2, with active: -1.32. Then GGAUCUUUCAGCGAAUAAATT against LRGUK, with inactive: 0.166; and GAUCGCUUCAGUAAACUAATT against RIOK3, with inactive: 0.0267.

For GGAGUGUUUACAUCGUUUUTT against RNF2, the median seed-adjusted z-score is inactive: 0.354. As to AGACCAAAGUACACGUUCATT against RAB39B, the median seed-adjusted z-score was inactive: 0.485. UGGAUUCCCUGUUCUUUGATT against PNMT: the median seed-adjusted z-score is inactive: -0.559. In the case of GGCUGUUCCUCUAACACUATT against PIK3R5, the median seed-adjusted z-score is inactive: 0.799.

On to AGUUCAUCUCGGAAGCACATT against LMTK3, for which the median seed-adjusted z-score was inactive: 0. Consider GACAUCGCAUGGUACAAGATT against NFASC, for which the median seed-adjusted z-score is inactive: 0.594. For GGCAUUGAGUGGUAUAGGATT against HS3ST5, the median seed-adjusted z-score was inactive: -0.725.

In the case of AGAAUUUUCUACACCGAGATT against CSNK1A1L, the median seed-adjusted z-score is inactive: -0.5. Under ACUUCACAGUGACACUGGATT against FPGS stands inactive: -0.853; under CAAUCAAACUAUCGCUUCATT against TRIM4, inactive: 0; under CGAGAACGGCAUAACGAGATT against CDC42BPB, inactive: -0.556.

With GCAGAUAUGCAAUCAAAGATT against KIF1C, the median seed-adjusted z-score is inactive: 0.749. Then GGCUUGAUGGAACCACGAATT against SMARCA4, with inactive: 0.223; and CCACGACUUCAGACAUCAATT against SFTPA2B, with inactive: -0.016; and GCCUUGAGACUGACCGUAATT against SIRPG, with inactive: -0.109. Then GGACCUUUUUGUUAAGUCATT against RASD1, with inactive: 0.674; and GAAAUUUCUUAGGAACUCATT against ADH1B, with inactive: 0.325; and GACUUCUAGUGAUGAGAAATT against PPIH, with inactive: -0.174. GCAACACCGACGUAAAGAATT against ALOX5: the median seed-adjusted z-score is inactive: -0.201.

With AGAUCCAAAUUGAGAUGGATT against ZNF221, the median seed-adjusted z-score is inactive: -0.536.

As for AGCCGUGGAUGGUAGAUCUTT against ZNF2, the median seed-adjusted z-score is inactive: -0.119. Then CCUUGUGCGUUACAGAAGATT against SCARA3, with inactive: -0.05.
